Reference: PubChem BioAssay AID1671190 (National Center for Advancing Translational Sciences (NCATS), 2021)
About 6,100 (1.1%) of roughly 580,000 compounds were called active. Inconclusive results, whose numbers are uncertain, are shown with a selection of clear calls. Calls follow the shape of the dose curve; as a rule, active = well fitted inhibition curve with a large enough effect; inconclusive = small, poorly fitted or top-dose-only effect, or another doubt; inactive = no such curve, though single readings can be large or run the other way. Where the call is inconclusive, the potency comes from a doubtful curve fit.

Chains of the proteins cited; added tags and fusions are not shown. Lines headed by an entry give the natural chain unless they say otherwise; changes in a name come on top.
UniProt P18054: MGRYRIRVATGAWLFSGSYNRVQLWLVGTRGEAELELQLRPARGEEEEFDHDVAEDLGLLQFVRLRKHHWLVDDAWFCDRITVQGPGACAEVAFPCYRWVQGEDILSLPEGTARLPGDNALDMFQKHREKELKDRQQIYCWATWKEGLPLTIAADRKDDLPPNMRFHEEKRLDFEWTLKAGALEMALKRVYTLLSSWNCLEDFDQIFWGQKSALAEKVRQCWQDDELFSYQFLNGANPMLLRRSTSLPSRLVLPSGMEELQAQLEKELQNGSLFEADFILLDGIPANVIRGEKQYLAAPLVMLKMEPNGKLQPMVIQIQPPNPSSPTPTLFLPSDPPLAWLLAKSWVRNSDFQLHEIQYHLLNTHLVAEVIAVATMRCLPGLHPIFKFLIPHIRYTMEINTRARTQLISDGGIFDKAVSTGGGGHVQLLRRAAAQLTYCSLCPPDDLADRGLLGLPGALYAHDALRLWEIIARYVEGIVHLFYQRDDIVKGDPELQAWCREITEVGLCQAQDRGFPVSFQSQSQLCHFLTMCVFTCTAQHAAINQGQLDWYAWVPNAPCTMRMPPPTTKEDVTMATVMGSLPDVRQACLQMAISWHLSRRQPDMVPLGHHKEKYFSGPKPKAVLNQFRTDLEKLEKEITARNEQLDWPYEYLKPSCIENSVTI

Molecular target: Polyunsaturated fatty acid lipoxygenase ALOX12 (Homo sapiens) (UniProt P18054)
Assay: Primary qHTS assay for inhibitors of human arachidonate 12S-lipoxygenase (ALOX12): Round 2
Conditions: purified 12hLO, xylenol orange hydroperoxide absorbance; series mostly up to 108 µM
How it was run: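 Purified human 12hLO at 150 nM in 25 mM Hepes, 0.01% Triton X-100, pH 7.0, preincubated 15 min at room temperature with compound. Reaction started with 40 uM arachidonic acid, 30 min at room temperature. Hydroperoxide measured by Fe-xylenol orange, 573/405 nm absorbance ratio.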
Potency is read from the fitted curve at half-maximal effect.

Row | Compound | Potency
1 | Cc1cc(-c2n[nH]c(=S)n2Cc2ccccc2)cs1 | inconclusive: 70.8 µM [inhibitor, partial curve, poor fit]
2 | Cc1c(O)ccc2c3c(c(=O)oc12)CCC(C)C3 (stereo not drawn) | inactive
3 | Cc1cc(N2CCN(S(=O)(=O)c3ccc(Cl)cc3C(F)(F)F)CC2)nc(C(C)C)n1 | inactive
4 | Cc1sc(N)c(C(=O)c2cccc(C(F)(F)F)c2)c1C | inconclusive: 39.8 µM [inhibitor, partial curve, poor fit]
5 | COc1ccc(-c2nc(-c3c(C)noc3C)cc3c2cc(-c2ccccc2)n3C)cn1 | inactive
6 | CCCNc1nc(C)nc2c1cnn2CCc1ccccc1 | inconclusive: 44.7 µM [inhibitor, partial curve, poor fit]
7 | COc1ccc(C(=O)NC(=S)NNC(=O)c2ccc3ccccc3n2)cc1 | inconclusive: 12.6 µM [inhibitor, partial curve, poor fit]
8 | Cc1cccc(NC(=O)C2CCCN2c2ncnc3ccccc23)c1C (stereo not drawn) | inconclusive: 12.6 µM [inhibitor, partial curve, poor fit]
9 | Cc1cccc(NC(=O)CSc2nc(-c3ccccc3)cn2-c2ccccc2)c1C | inconclusive: 112 µM [inhibitor, partial curve, poor fit]
10 | O=C1C(c2ccccc2)c2ccccc2N1Cc1ccccc1 (stereo not drawn) | inconclusive: 79.4 µM [inhibitor, partial curve, poor fit]
11 | Fc1ccc(/C=C2\CCCC3=C2N=C2SC=C(c4ccc(F)cc4)N2C3c2ccc(F)cc2)cc1 (stereo not drawn) | inconclusive: 28.2 µM [inhibitor, partial curve]
12 | O=C(NCc1ccc2c(c1)OCO2)c1cc([N+](=O)[O-])ccc1N1CCCCC1 | inactive
13 | Cc1cccc(CNC(C)CN2CCCCC2)c1 (stereo not drawn) | inconclusive: 35.5 µM [inhibitor, partial curve]
14 | CC(C)NC(=O)NC(=O)COC(=O)c1cc2c(s1)CCC2 | inactive
15 | COc1ccc(N2CCN(CC(=O)Nc3cc(C)on3)CC2)cc1 | inconclusive: 0.316 µM [inhibitor, full curve, poor fit]
16 | COc1ccc(C(c2nnnn2Cc2cccs2)N2CCN(c3ccc(F)cc3)CC2)cc1OC (stereo not drawn) | inconclusive: 100 µM [inhibitor, partial curve, poor fit]
17 | CN(C)CCCN(Cc1cccc2ccccc12)Cc1cccc2ccccc12 | active: 5.01 µM
18 | Cc1ncc2n1C(=O)N(C1CCN(Cc3cccc4ccccc34)CC1)C2 | inconclusive: 8.91 µM [inhibitor, partial curve]
19 | Cc1nc(-c2cccnc2)sc1C(=O)Nc1ccc(C(F)(F)F)cc1 | inconclusive: 126 µM [inhibitor, single point]
20 | CC(C)NC(=O)N1Cc2cc(C(=O)NC3CCC3)nc(-c3cccc(-c4cncnc4)c3)c2[C@H]1CCO | inconclusive: 112 µM [inhibitor, single point]
21 | COc1ccc(CNC(=O)c2c(O)nc3cc(C)ccn3c2=O)cc1 | inactive
22 | CN(C)Cc1ccccc1-c1ccc2ncnc(NCc3ccccc3)c2c1 | inconclusive: 8.91 µM [inhibitor, full curve, poor fit]
23 | CCNC(C(=O)OCC)c1ccc(Cl)cc1 (stereo not drawn) | inconclusive: 35.5 µM [inhibitor, partial curve, poor fit]

Row | Compound | Potency
24 | CC(=O)Nc1cc(C)c(O)c(-c2nc3cc(C)ccc3o2)c1 | inactive
25 | Cn1c(NCCCN2CCOCC2)nc2c1c(=O)n(Cc1ccc(Cl)cc1Cl)c(=O)n2C | inactive
26 | Cc1nc(C)c(-c2csc(Nc3cccc(O)c3)n2)s1 | inconclusive: 39.8 µM [inhibitor, partial curve]
27 | COc1ccc(OC)c(/C=N/N(C)c2ccccc2)c1 | inconclusive: 44.7 µM [inhibitor, partial curve, poor fit]
28 | COc1ccc(CNC(=O)Cc2ccc(NC(=O)C3=C(C)OCCS3)cc2)cc1 | inactive
29 | Cc1ccc2c(C(=O)O)csc2c1 | inactive
30 | O=C(CNc1ccccc1)c1ccc([N+](=O)[O-])cc1 | inconclusive: 79.4 µM [inhibitor, partial curve, poor fit]
31 | CCCc1c(C(=O)OCC)[nH]c2c1C(=O)CC(c1ccc(CC)cc1)C2 (stereo not drawn) | inconclusive: 31.6 µM [inhibitor, single point]
32 | O=C(c1ccco1)N1CCN(C(=O)c2ccccc2OCc2ccc(Cl)cc2)CC1 | inconclusive: 0.199 µM [inhibitor, full curve, poor fit]
33 | CC(C)c1ccc(NS(=O)(=O)c2c[nH]c3ccc([N+](=O)[O-])cc23)cc1 | inconclusive: 28.2 µM [inhibitor, partial curve, poor fit]
34 | CCN(CC)C(=O)C1CCCN(C/C=C/c2ccccc2[N+](=O)[O-])C1 (stereo not drawn) | inconclusive: 3.98 µM [inhibitor, full curve, poor fit]
35 | COC(=O)c1ccc(CN2C(=O)[C@@H]3C[C@@H](O)CN3C3(CN(Cc4ccc(OC)c5ccccc45)C3)C2=O)cc1 | inconclusive: 10 µM [inhibitor, full curve, poor fit]
36 | CSc1nc(Cl)c(C#N)c(-c2ccc(C)cc2)n1 | inconclusive: 7.94 µM [inhibitor, full curve]
37 | Cc1ccc(C(=O)N/N=C/C2=Cc3ccccc3OC2C)cc1 (stereo not drawn) | inactive
38 | Cc1cc(/C=C/c2nc3c(ccc4ccccc43)s2)cc(C)c1O | active: 6.31 µM
39 | COc1cccc(CNC(=O)Cc2ccc(NC(=O)N3CCCCc4ccccc43)cc2)c1OC | inactive
40 | COc1cccc(C(=O)NC(=S)Nc2ccc(N3CCCC3)cc2)c1 | inconclusive: 17.8 µM [inhibitor, partial curve, poor fit]
41 | COc1ccc(O)c(C(=O)/C=C/c2ccc(C)cc2)c1 | inconclusive: 89.1 µM [inhibitor, single point]
42 | CCc1oc2ccccc2c1/C=N/O | inactive
43 | CNc1snc(C)c1C(=O)NCCc1ccccc1OC | inactive
44 | CC1=C(C(=O)c2ccccc2)C(c2ccc(O)cc2)NC(=S)N1 (stereo not drawn) | inconclusive: 44.7 µM [inhibitor, partial curve]
45 | CCCCCC(O)(c1ccccc1)C(CN1CCOCC1)c1ccccc1 (stereo not drawn) | inconclusive: 39.8 µM [inhibitor, partial curve, poor fit]
46 | Cc1nc(Nc2ccccc2Cl)sc1C(=O)Nc1ccccc1 | inactive

Filtered by structure: the entries above containing a furan ring, fused or not
Row | Compound | Potency
32 | O=C(c1ccco1)N1CCN(C(=O)c2ccccc2OCc2ccc(Cl)cc2)CC1 | inconclusive: 0.199 µM [inhibitor, full curve, poor fit]
42 | CCc1oc2ccccc2c1/C=N/O | inactive

In a second layout: results already given.
Row,Compound,Potency
26,Cc1nc(C)c(-c2csc(Nc3cccc(O)c3)n2)s1,"inconclusive: 39.8 µM [inhibitor, partial curve]"
27,COc1ccc(OC)c(/C=N/N(C)c2ccccc2)c1,"inconclusive: 44.7 µM [inhibitor, partial curve, poor fit]"
32,O=C(c1ccco1)N1CCN(C(=O)c2ccccc2OCc2ccc(Cl)cc2)CC1,"inconclusive: 0.199 µM [inhibitor, full curve, poor fit]"
36,CSc1nc(Cl)c(C#N)c(-c2ccc(C)cc2)n1,"inconclusive: 7.94 µM [inhibitor, full curve]"

Next entries follow:

Row | Compound | Potency
47 | COc1ccc(C2C(O)C(c3c[nH]c4ccccc34)=NN2C(=O)CCl)cc1 (stereo not drawn) | inconclusive: 100 µM [inhibitor, partial curve, poor fit]
48 | O=C(Nc1ncc2c(n1)-c1ccccc1CC2)C1CC1 | inconclusive: 112 µM [inhibitor, single point]
49 | O=C(Nc1ccccc1)c1cc(C2CC2)nc2ccccc12 | inconclusive: 44.7 µM [inhibitor, partial curve, poor fit]
50 | COc1ccc(-c2nc3c(C)cc(Br)cn3c2Cc2ccsc2)cc1OC | inactive
51 | Cc1nc(-c2ccccc2)sc1C(=O)CSc1ccccc1 | inconclusive: 0.447 µM [inhibitor, full curve, poor fit]
52 | Cc1oc(-c2cccs2)nc1CC(=O)Nc1ccccc1N1CCCCCC1 | inactive
53 | COCCCNC(=S)NCCCNc1nc2cc3c(cc2cc1C#N)OCO3 | inconclusive: 56.2 µM [inhibitor, partial curve, poor fit]
54 | CCOc1ccc([C@@H]2CC=C(C(=O)O)[C@H](c3cccc(Cl)c3)N2S(=O)(=O)c2ccc(C)cc2)cc1 | inconclusive: 79.4 µM [inhibitor, partial curve, poor fit]
55 | CN(Cc1ccco1)C(=O)c1n[nH]c(=O)c2ccccc12 | inactive
56 | COc1ccc(NC(=O)c2ccc(C#N)cc2)cc1NS(=O)(=O)c1ccc(F)cc1 | inactive
57 | COc1ccc(CNc2oc(-c3cccc4ccccc34)nc2P(=O)(OC)OC)cc1 | inactive
58 | CC(C)SCCCCOc1ccc2ccccc2c1 | inconclusive: 31.6 µM [inhibitor, partial curve, poor fit]
59 | O=C(CSc1nnc(COc2ccc(Cl)cc2)o1)NC1CCCCC1 | inconclusive: 39.8 µM [inhibitor, single point]
60 | c1coc(-c2nnc(SCc3nc4ccccc4[nH]3)o2)c1 | inactive
61 | Cc1ccc(C(=O)CC2(O)C(=O)N(CCc3ccccc3)c3ccc(Cl)cc32)cc1 (stereo not drawn) | inconclusive: 100 µM [inhibitor, partial curve, poor fit]
62 | CC(C)OC(=O)c1cccnc1SCc1cc(=O)n2ccccc2n1 | inactive
63 | COC(=O)CSC1=C(C#N)C(=O)NC2(CCCCC2)S1 | inconclusive: 44.7 µM [inhibitor, partial curve, poor fit]
64 | CC(C)c1nc2c(c(-c3ccc(Cl)cc3)n1)CCN(Cc1ccc(C#N)cc1)CC2 | inconclusive: 22.4 µM [inhibitor, full curve, poor fit]
65 | COc1ccc(Nc2cc(C)nc3nc(-c4ccc(Cl)cc4)nn23)c(OC)c1 | inconclusive: 22.4 µM [inhibitor, partial curve, poor fit]
66 | O=S(=O)(c1ccc(Cl)c(C(F)(F)F)c1)N1CCN(CC(O)COCC2CCCO2)CC1 (stereo not drawn) | active: 0.562 µM
67 | CC1(C)C=Cc2c(ccc3c2OC[C@H](c2ccc(O)cc2O)C3)O1 | inconclusive: 50.1 µM [inhibitor, partial curve, poor fit]
68 | Cn1c(=O)c2c(-c3ccccc3Cl)n(-c3cc(Cl)ccc3O)cc2n(C)c1=O | inconclusive: 50.1 µM [inhibitor, partial curve, poor fit]
